Some of the results follow. Shown are side measurements of this screen, not its main read-out; they come without a call. The list favours compounds with an active or inconclusive main result. The note in brackets gives the kind of curve behind each potency; many fits are weak.
Experiment: qHTS Assay for Lipid Storage Modulators in Drosophila S3 Cells;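 as to cell number change: cells counted by Cell Tracker Red CMTPX staining in the red channel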
Details: BODIPY lipid droplet fluorescence, 18-24 h; for cell number change: measured here: cell count max response, cells fed with added oleic acid
Procedure, shortened: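 Drosophila S3 cells got compounds at several concentrations plus oleic acid (400 uM solution). Laser-scanning cytometry with 488 nm excitation read lipid droplets at 500-530 nm and cells at 575-640 nm. Percent activity was relative to 20 uM Triacsin C.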

[1] = measured here: lipid fluorescence (Fed channel) AC50, cells fed with added oleic acid
[2] = measured here: cell number channel AC50, cells fed with added oleic acid

SMILES	cell number change [%]	AC50 [1]	AC50 [2]
Cc1cc(C)n2cc(CSc3nc4ccccc4[nH]3)nc2n1	4.12	0.116 µM [rising, full curve, poor fit]	
Cn1cc(Br)c(-c2cccc(NC(=O)CC(C)(C)CC(=O)O)c2)n1	42.6	29.1 µM [rising, single point]	0.651 µM [rising, full curve, poor fit]
Cc1noc(C)c1COc1cccc(C(=O)Nc2ccccc2)c1	4.52	0.58 µM [rising, single point]	
CCOC(=O)CC(NC(=O)Cn1nnc(-c2ccccc2C)n1)c1ccc(OC)cc1 (centres undefined)		9.2 µM [rising, partial curve]	
Cc1ccccc1NC(=O)Cn1c(CCC(=O)O)ccc1-c1cccs1	105	1.16 µM [falling, single point]	0.651 µM [rising, single point]
Cc1cc(Br)ccc1NC(=O)CN(C)C(=O)CN1C(=O)NC2(CCCC2)C1=O	-50.2		25.9 µM [falling, single point]
O=C(Nc1ccccc1)Nc1nnc(COc2ccccc2F)s1	8.7	7.31 µM [rising, partial curve, poor fit]	
Fc1c(F)c(F)c(CSc2nc3ccccc3[nH]2)c(F)c1F		0.58 µM [rising, single point]	3.26 µM [rising, partial curve]
CCOC(=O)C1CCCN(C(=O)COc2ccc(S(=O)(=O)N(CC)c3ccccc3)cc2)C1 (centres undefined)	-15.8	0.92 µM [falling, full curve]	
S=c1[nH]ncn2c1cc1oc3ccccc3c12	42.6	0.651 µM [rising, full curve]	0.0259 µM [rising, full curve, poor fit]
CCOC(=O)N1CCC(NC(=O)CCc2nc(-c3ccccc3F)no2)CC1	-27.3		
CC(C)C(=O)NCc1cc(-c2ccc(Cl)cc2)no1	19.9		
COc1ccc(CN(Cc2ccccn2)S(=O)(=O)c2ccc(-n3cnnn3)cc2)cc1	10.1	0.164 µM [rising, full curve, poor fit]	
COc1ccccc1NC(=O)C(C)OC(=O)/C(=C/c1ccccc1)NC(C)=O (centres undefined)			6.51 µM [rising, single point]
O=C(Nc1ccc(F)cc1F)C1CCCN(c2ncnc3c2nc2n3CCCCC2)C1 (centres undefined)	-13.4		6.51 µM [rising, single point]
O=[N+]([O-])c1cccc(-n2nnnc2CN2CCCCCC2)c1		1.3 µM [falling, full curve]	
CCN(CC)C(=S)SSC(=S)N(CC)CC	-50	2.91 µM [falling, partial curve, poor fit]	20.6 µM [falling, partial curve, poor fit]
O=c1nc(NCc2ccco2)sc2ncccc12	-4.87		
CCOCCOC(=O)C(C)Sc1n[nH]c(=O)[nH]c1=O (centres undefined)	-1.07	29.1 µM [falling, single point]	
Cc1ccc(Nc2ncccc2C(N)=O)cc1[N+](=O)[O-]	-11.7	4.61 µM [rising, full curve]	

Given in CSV form: part of the list above
SMILES,cell number change [%],AC50 [1],AC50 [2]
S=c1[nH]ncn2c1cc1oc3ccccc3c12,42.6,"0.651 µM [rising, full curve]","0.0259 µM [rising, full curve, poor fit]"
CCOC(=O)N1CCC(NC(=O)CCc2nc(-c3ccccc3F)no2)CC1,-27.3,,
CC(C)C(=O)NCc1cc(-c2ccc(Cl)cc2)no1,19.9,,

(cont.)

SMILES	cell number change [%]	AC50 [1]	AC50 [2]
CCOC(=O)c1oc2cc(O)ccc2c(=O)c1-c1ccc(OC)cc1	13.1		
Cc1cccc(N2CCN(C(=O)c3ccc4c(c3)NC(=O)C(CSCc3cccc(F)c3)N4)CC2)c1C (centres undefined)	43.1	0.164 µM [falling, full curve, poor fit]	4.11 µM [rising, single point]
N/C(=N/OCc1cccc([N+](=O)[O-])c1)c1nonc1N	28.8	16.4 µM [rising, single point]	
CCOC(=O)N1CCN(C2CC(=O)N(c3ccc(F)cc3)C2=O)CC1 (centres undefined)	-2.21	29.1 µM [falling, single point]	
COC(=O)C1=CN(c2ccc(F)c(F)c2)C=C(C(=O)OC)C1c1ccc([N+](=O)[O-])cc1	15.8	8.2 µM [rising, partial curve]	
Cc1cccc(NCc2ccc(N(C)C)cc2)n1	5.03		
CC(Oc1ccccc1)C(=O)Nc1nnc(S(=O)(=O)N2CCCCC2)s1 (centres undefined)	-15.2		
COc1ccccc1C(CNC(=O)c1ccc(NS(=O)(=O)c2ccc3c(c2)OCCO3)cc1)N(C)C (centres undefined)		3.66 µM [falling, partial curve]	
O=c1cc(C(F)(F)F)nc(SCc2cccnc2)[nH]1	-85.2	0.651 µM [falling, partial curve, poor fit]	
Clc1ccc(COn2ccnc2)cc1Cl	6.69		
CCCc1cc(=O)[nH]c(SCc2ccc(Cl)cc2)n1	-42.1	0.731 µM [falling, full curve]	0.651 µM [falling, full curve]
O=C(CCCN1C(=O)/C(=C/c2cccs2)SC1=S)Nc1cccc(O)c1	-6.58	35.5 µM [rising, single point]	
CC1c2cc3c(cc2CCN1C(=O)c1cccc(Cl)c1)OCCCO3 (centres undefined)	-42.8	16.4 µM [falling, partial curve]	29.1 µM [falling, single point]
O=c1[nH]c(C2CCCN(S(=O)(=O)c3ccc(F)cc3)C2)nc2c1nnn2Cc1ccccc1 (centres undefined)	-17.8		
CCCCC(CC)Cn1c(O)c(/C=C2\C=NN=C2c2ccccc2)sc1=S (centres undefined)	-20.3	16.4 µM [falling, single point]	
N#Cc1cccc(NC(=O)N2CCC(c3nc4c(nnn4Cc4cccc(Cl)c4)c(=O)[nH]3)CC2)c1	-20.8		
S=C(NCCCc1ccccc1)NCc1ccccc1	-0.578	6.51 µM [rising, single point]	
CC(=O)Nc1ccccc1OCC(O)CS(=O)(=O)c1ccc(C(F)(F)F)cn1 (centres undefined)	19.7		4.11 µM [rising, single point]
CCCN1CCC(=O)N([C@H](CO)Cc2ccccc2)CC1	17.1		
CC(=O)c1nnn(-c2nc(N3CCCC3)nc(N(c3ccccc3)c3ccccc3)n2)c1C	-182	29.1 µM [falling, single point]	20.6 µM [falling, partial curve]

From PubChem BioAssay AID2685 (National Center for Advancing Translational Sciences (NCATS), 2010)
